Assay results reported in US20240279218A1 (Hoffmann-La Roche Inc., priority 2016, published 2024).
For at least one compound, name, drawing or mass did not settle the structure.

By UniProt entry, the sequences of proteins in these tests, tags left out. Residues count along the entry.
UniProt P18507, 40-475: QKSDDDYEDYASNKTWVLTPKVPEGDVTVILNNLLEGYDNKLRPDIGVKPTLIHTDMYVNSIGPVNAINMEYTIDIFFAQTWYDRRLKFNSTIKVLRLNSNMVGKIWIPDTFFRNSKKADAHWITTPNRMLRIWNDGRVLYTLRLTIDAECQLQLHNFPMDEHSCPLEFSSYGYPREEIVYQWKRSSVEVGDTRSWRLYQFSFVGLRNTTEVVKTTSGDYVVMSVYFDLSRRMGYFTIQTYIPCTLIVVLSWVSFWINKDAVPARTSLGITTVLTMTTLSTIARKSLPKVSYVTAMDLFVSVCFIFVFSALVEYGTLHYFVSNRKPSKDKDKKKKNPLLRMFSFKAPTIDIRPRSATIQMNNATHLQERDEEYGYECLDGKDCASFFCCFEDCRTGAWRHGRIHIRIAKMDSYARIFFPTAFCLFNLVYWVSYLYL
UniProt P31644, 32-462: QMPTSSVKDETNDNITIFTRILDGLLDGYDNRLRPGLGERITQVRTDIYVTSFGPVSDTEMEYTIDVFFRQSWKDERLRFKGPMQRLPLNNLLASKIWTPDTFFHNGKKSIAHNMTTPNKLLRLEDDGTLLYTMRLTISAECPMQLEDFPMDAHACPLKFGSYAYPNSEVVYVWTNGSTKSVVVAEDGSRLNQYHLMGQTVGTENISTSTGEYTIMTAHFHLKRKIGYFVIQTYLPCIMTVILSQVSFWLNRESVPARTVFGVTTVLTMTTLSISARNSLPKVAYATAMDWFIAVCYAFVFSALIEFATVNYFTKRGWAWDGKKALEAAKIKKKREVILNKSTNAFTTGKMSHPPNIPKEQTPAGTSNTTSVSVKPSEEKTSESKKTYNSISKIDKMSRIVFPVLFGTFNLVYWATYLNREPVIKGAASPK

biological target: h-GABA-A α5β3γ2 (Homo sapiens (Human), UniProt P18507+P31644); assay: Two-electrode voltage clamp electrophysiology in Xenopus oocytes expressing GABAA receptors, modulation of GABA EC20 current; format: cell-based; settings: GABA EC20, test compound at approx. 30 fold its Ki
Procedure: Xenopus laevis oocytes at maturation stages V-VI were used for the expression of cloned mRNA encoding GABAA receptor subunits. Oocytes ready for RNA micro-injection were bought from Ecocyte, Castrop-Rauxel, Germany and stored in modified Barth's medium (composition in mM: NaCl 88, KCl 1, NaHCO32.4, HEPES 10, MgSO4 0.82, CaNO3 0.33, CaCl2) 0.33, pH=7.5) at 20° C. until the experiment.
Oocytes were plated in 96-well plates to be used in an automated instrument (Robo-ocyte, MultiChannelSystems, Reutlingen, Germany) for microinjection and electrophysiological recordings. Approximately 50 nl of an aqueous solution containing the RNA transcripts for the subunits of the desired GABAA receptor was injected into each oocyte. RNA concentrations ranged between 0.3 and 16 ng/μl/subunit and were adjusted in pilot experiments to obtain GABA responses of a suitable size and a maximal effect of the reference modulator, Beta-CCM (β-CCM), a betacarboline negative allosteric modulator (NAM) at the GABAA receptor benzodiazepine (BZD) binding site or Midazolam, a benzodiazepine positive allosteric modulator (PAM) at the GABAA receptor benzodiazepine (BZD) binding site. The concentration of the γ2 subunit encoding RNA usually was 5-to 10-fold higher than the RNAs encoding the other subunits. Oocytes were kept in modified Barth's medium (composition in mM: NaCl 88, KCl 1, NaHCO3 4, HEPES 10, MgSO4 0.82, CaNO3 0.33, CaCl2 0.33, pH=7.5) at 20° C. until the experiment.
Electrophysiological experiments were performed on days 3 to 5 after the micro-injection of mRNA. During the experiment the oocytes were constantly superfused by a solution containing (in mM) NaCl 90, KCl 1, HEPES 5, MgCl2 1, CaCl2 1 (pH 7.4). Oocytes were impaled by two glass microelectrodes (resistance: 0.4 MΩ) which were filled with a solution containing KCl 1M+K-acetate 1.5 M and voltage-clamped to −80 mV. The recordings were performed at room temperature using the Roboocyte two-electrode voltage clamp system (Multichannelsystem). After an initial equilibration period of 1.5 min GABA was added for 1.5 min at a concentration evoking approximately 20% of a maximal current response (EC20). […] Current traces were recorded at a digitization rate of 10 Hz during and shortly before and after the GABA application. […]
For the analysis, the digitized current traces of the first and second GABA response were superimposed and, if necessary, rescaled to equal maximal amplitudes. The ratio between the two responses during the time interval of test compound application was calculated point by point. The extremum of the resulting “ratio trace” was taken as the efficacy (“Fold increase”) of the compound expressed as “% modulation of GABA EC20” (100*(Fold increase−1)).

SMILES | Fold increase h-GABA-A α5β3γ2 oocyte
Cc1onc(-c2ccc(Cl)nc2)c1COc1ccc(C(=O)N[C@H]2CCOC2)nn1 [Example 160, (S)-6-((3-(6-chloropyridin-3-yl)-5-methylisoxazol-4-yl)methoxy)-N-(tetrahydrofuran-3-yl)pyridazine-3-carboxamide] | 1.42
Cc1ccc(-c2noc(C)c2COc2ccc(C(=O)N3C[C@@H]4C[C@H]3CO4)nn2)cn1 [Example 151, (1S,4S)-2-oxa-5-azabicyclo[2.2.1]heptan-5-yl(6-((5-methyl-3-(6-methylpyridin-3-yl)isoxazol-4-yl)methoxy)pyridazin-3-yl)methanone] | 1.68
Cc1ccc(-c2nocc2COc2ccc(C(=O)NC3CCOCC3)cn2)cn1 [Example 44, 6-((3-(6-methyl-3-pyridyl)isoxazol-4-yl)methoxy)-N-tetrahydropyran-4-yl-pyridine-3-carboxamide] | 1.54
O=C(N[C@H]1CCOC1)c1ccc(OCc2c(-c3ccc(Cl)nc3)noc2C2CC2)nn1 [Example 179, (S)-6-((3-(6-chloropyridin-3-yl)-5-cyclopropylisoxazol-4-yl)methoxy)-N-(tetrahydrofuran-3-yl)pyridazine-3-carboxamide] | 1.82
